Results from patent US6528068B1, “Cosmetic composition containing N-acyl neutral amino acid esters of lower alcohols” (Ajinomoto Co., Inc., priority 1997, dated 2003).

Assays:
[1] = Examination of clean feeling and the like of inorganic pigment compositions; format: in vivo; details: 25% by weight oily material, 25% TiO2, 50% liquid paraffin; five panelists
[2] = Organoleptic evaluation of the feeling of neat oily materials by five panelists; format: in vivo; details: neat oily material (solids melted at 45° C.) on back of hand
[3] = Hair conditioning property after dipping hair in an ethanol solution of the oily material; details: hair (2.5 g) dipped 2 minutes in 0.05 weight % ethanol solution of the oily material; five panelists
[4] = Organoleptic evaluation of a milky lotion containing each oily material; format: in vivo; details: milky lotion with 5.0 % by weight oily material, pH 6.5; five panelists; liquid paraffin = 0 (blank)

CCCCCCCCCCCC(=O)N(C)CC(=O)OCCCCCCCCCCCCCCCC(C)C [Reference Synthesis Example 1, N-lauroylsarcosine isostearyl ester]
Adaptability [1]: Δ (when the average value was at least 0.5 and less than 1.0, it was rated as Δ)
Clean feeling [1]: Δ (when the average value was at least 0.5 and less than 1.0, it was rated as Δ)
Extensibility [1]: Δ (when the average value was at least 0.5 and less than 1.0, it was rated as Δ)
Smoothness [1]: Δ (when the average value was at least 0.5 and less than 1.0, it was rated as Δ)
Stickiness [1]: Δ (when the average value was at least 0.5 and less than 1.0, it was rated as Δ)
Heavy feeling: sticky [2]: 2 number of persons
Heavy feeling: wet [2]: 2 number of persons

CCCCCCCCCCCC(=O)N(C)CC(=O)OCC(CCCCCCCC)CCCCCCCCCC (stereo not drawn) [Reference Synthesis Example 2, N-lauroylsarcosine octyl dodecyl ester, reference compound]
Heavy feeling: sticky [2]: 3 number of persons
Heavy feeling: wet [2]: 2 number of persons

CCCCCCCCCCCC(=O)N[C@@H](C)C(=O)OCC(CCCCCCCC)CCCCCCCCCC (stereo partly drawn) [Reference Synthesis Example 3, N-lauroyl alanine octyldodecyl ester, reference compound]
Conditioning property [3]: Δ (when the average value was at least −1.0 and less than 0.5, it was rated as bad (Δ))
Adaptability [4]: Δ (when the average value was at least −1.0 and less than 0.5, it was rated as bad (Δ))
Clean feeling [4]: Δ (when the average value was at least −1.0 and less than 0.5, it was rated as bad (Δ))
Extensibility [4]: Δ (when the average value was at least −1.0 and less than 0.5, it was rated as bad (Δ))
Smoothness [4]: Δ (when the average value was at least −1.0 and less than 0.5, it was rated as bad (Δ))
Heavy feeling: sticky [2]: 4 number of persons
Heavy feeling: wet [2]: 1 number of persons

CCCCCCCC(=O)NCC(=O)OC(C)C [Synthesis Example 1, N-octanoylglycine isopropyl ester]
Light feeling: dry [2]: 1 number of persons

CCCCCCCCCCCCCC(=O)NCC(=O)OCCCCCCCC [Synthesis Example 7, N-myristoyl glycine octyl ester]
Conditioning property [3]: ∘ (when the average was at least 0.5 and less than 1.0, it was rated as good (∘))

CCCCCCCCCCCCCCCCCC(=O)N[C@@H](C)C(=O)OCCCCCCCC [Synthesis Example 8, N-stearoyl alanine octyl ester]
Conditioning property [3]: ∘ (when the average was at least 0.5 and less than 1.0, it was rated as good (∘))

CCCCCCCCCCCC(=O)N[C@@H](C)C(=O)OCC [Synthesis Example 9, N-lauroyl alanine ethyl ester]
Light feeling: dry [2]: 1 number of persons

CCCCCCCCCCCC(=O)N[C@@H](C)C(=O)OC(C)(C)C [Synthesis Example 10, N-lauroyl alanine t-butyl ester]
Heavy feeling: wet [2]: 1 number of persons

CCCCCCCCCCCC(=O)N(C)CC(=O)OC(C)C [Synthesis Example 14, N-laurolysarcosine isopropyl ester]
Conditioning property [3]: ∘ (when the average was at least 0.5 and less than 1.0, it was rated as good (∘))
Light feeling: dry [2]: 4 number of persons

CCCCCCCCCCCC(=O)N(C)CCC(=O)OC(C)C [Synthesis Example 15, N-lauroyl-N-methyl-β-alanine isopropyl ester]
Heavy feeling: wet [2]: 1 number of persons
Light feeling: dry [2]: 2 number of persons

CCCCCCCCCCCC(=O)N[C@@H](C)C(=O)OC(C)C [Synthesis Example 17, N-lauroyl alanine isopropyl ester]
Conditioning property [3]: ∘∘ (When the average value was between 1.0 and 2.0, it was rated as very good (∘∘))
Light feeling: dry [2]: 1 number of persons

CCCCCCCCCCCCCC(=O)OC(C)C [isopropyl myristate]
Conditioning property [3]: Δ (when the average value was at least −1.0 and less than 0.5, it was rated as bad (Δ))
Extensibility [1]: Δ (when the average value was at least 0.5 and less than 1.0, it was rated as Δ)
Smoothness [1]: Δ (when the average value was at least 0.5 and less than 1.0, it was rated as Δ)
Adaptability [4]: Δ (when the average value was at least −1.0 and less than 0.5, it was rated as bad (Δ))
Extensibility [4]: Δ (when the average value was at least −1.0 and less than 0.5, it was rated as bad (Δ))
Smoothness [4]: Δ (when the average value was at least −1.0 and less than 0.5, it was rated as bad (Δ))

CCCCCCCCCCCC(=O)N[C@@H](CCC(=O)OCC(CCCCCCCC)CCCCCCCCCC)C(=O)OCC(CCCCCCCC)CCCCCCCCCC (stereo partly drawn) [lauroylglutamic acid octyldodecyl diester]
Clean feeling [1]: Δ (when the average value was at least 0.5 and less than 1.0, it was rated as Δ)
Smoothness [1]: Δ (when the average value was at least 0.5 and less than 1.0, it was rated as Δ)
Stickiness [1]: Δ (when the average value was at least 0.5 and less than 1.0, it was rated as Δ)

Some compounds share one wording; it may come from a single statement.
